The record followed here is the supplement of paper PMC4635364.

Structures are written as SMILES. Where a name gives a salt, the structure may show the parent alone. This is one part of the list. Single values are uncertain here, since repeats match poorly.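 Cells: ReNCell VM human fetal ventral-midbrain neural progenitors, differentiated mitogen-free. Blinded raters compared doublecortin-stained (early neurons) or tyrosine hydroxylase-stained (dopaminergic neurons) images with untreated wells, where 0 means no change. After repeats and both raters were averaged, compounds scoring 2 or above became hits for retesting.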

For experiment [1], the system named is ReNCell VM. Briefly: neuronal differentiation score (DCX+ cell fraction vs untreated, manual image score) (score (-3 to 3)); higher = more neuronal differentiation. As to conditions: 2 uM, 2 weeks.
The subject of experiment [2] is ReNCell VM. Kind of experiment: dopaminergic neuron differentiation score (TH+ cell fraction vs untreated, manual image score) (score (0 to 3)); higher = more TH+ dopaminergic neuron differentiation. As to conditions: 2 uM, 4 weeks, BDNF 10 ng/ml + GDNF 10 ng/ml.

Take `CCCCCC(=O)Cc1cc(O)cc(O)c1C(=O)Oc1cc(CC(=O)CCCCC)c(C(=O)O)c(OC)c1`: the neuronal differentiation score with ReNCell VM [1] (library: Spectrum) was inactive: 0. In the experiment with ReNCell VM [2] (library: Spectrum), the “dopaminergic neuron differentiation score” value was inactive: 0.
On to `CCCOc1ccc(C(=O)OCCN(CC)CC)cc1N`, for which the neuronal differentiation score in the experiment on ReNCell VM [1] (library: Spectrum) is inactive: 0. The “dopaminergic neuron differentiation score” value in the experiment with ReNCell VM [2] (library: Spectrum) is inactive: 0.
With `CC(=O)O[C@H]1C[C@@H](OC(C)=O)C(C)(C)C2CC(=O)[C@]3(C)C(CC[C@@]4(C)[C@H](c5ccoc5)OC(=O)[C@H]5O[C@]543)[C@]21C` (some centres undefined), the neuronal differentiation score with ReNCell VM [1] (library: Spectrum) was inactive: 0. In addition, the “dopaminergic neuron differentiation score” value in the experiment with ReNCell VM [2] (library: Spectrum) was inactive: 0.
As for `CN(C)CCN(Cc1ccc(Cl)cc1)c1ccccn1`, the neuronal differentiation score in the experiment on ReNCell VM [1] (library: Spectrum) is inactive: 0. Further, in the experiment with ReNCell VM [2] (library: Spectrum), the “dopaminergic neuron differentiation score” value was inactive: 0.
Regarding `CC(=O)N(c1onc(C)c1C)S(=O)(=O)c1ccc(N)cc1`, the neuronal differentiation score with ReNCell VM [1] (library: Spectrum) was inactive: 1. The “dopaminergic neuron differentiation score” value in the experiment on ReNCell VM [2] (library: Spectrum) was inactive: 0.
With `O=C(O)c1c(C(=O)O)c2ccccc2[nH]c1=O` [2-oxo-1,2-dihydro-quinoline-3,4-dicarboxylic acid], the neuronal differentiation score in the experiment on ReNCell VM [1] (library: Natural) is inactive: -1. Also, in the experiment on ReNCell VM [2] (library: Natural), the “dopaminergic neuron differentiation score” value was inactive: 0.
Consider `CCN(CC)C(=O)Nc1ccc(OCC(O)CNC(C)(C)C)c(C(C)=O)c1` (centres undefined) [Celiprolol HCl], for which, in the experiment with ReNCell VM [1] (library: Prestwick), the neuronal differentiation score was inactive: 0. Besides, in the experiment with ReNCell VM [2] (library: Prestwick), the “dopaminergic neuron differentiation score” value is inactive: 0.
Consider `COc1c(N2CCNC(C)C2)c(F)cc2c(=O)c(C(=O)O)cn(C3CC3)c12` (centres undefined), for which the neuronal differentiation score with ReNCell VM [1] (library: Spectrum) was inactive: -1. Moreover, the “dopaminergic neuron differentiation score” value in the experiment with ReNCell VM [2] (library: Spectrum) was inactive: 0.
Consider `Cc1cn([C@H]2C[C@H](N=[N+]=[N-])[C@@H](CO)O2)c(=O)[nH]c1=O` [Zidovudine, AZT], for which the neuronal differentiation score with ReNCell VM [1] (library: Prestwick) was inactive: 0. Besides, the “dopaminergic neuron differentiation score” value in the experiment with ReNCell VM [2] (library: Prestwick) is inactive: 0.
On to `Cc1ccnc2c1NC(=O)c1cccnc1N2C1CC1`, for which the neuronal differentiation score with ReNCell VM [1] (library: Spectrum) is inactive: 0. In addition, the “dopaminergic neuron differentiation score” value with ReNCell VM [2] (library: Spectrum) is inactive: 0.
`C=C1C(N)CC2CC1C2(C)C` (stereo not drawn) [3-AMINO-beta-PINENE]: the neuronal differentiation score in the experiment on ReNCell VM [1] (library: Spectrum) was inactive: 0. For the same compound, the “dopaminergic neuron differentiation score” value in the experiment on ReNCell VM [2] (library: Spectrum) was inactive: 0.
On to `CC(=O)C1=C(O)C=C2Oc3c(C(C)=O)c(O)c(C)c(O)c3[C@@]2(C)C1=O` [(+)-Usnic acid], for which, in the experiment on ReNCell VM [1] (library: Phytochemical), the neuronal differentiation score was inactive: 0. Also, the “dopaminergic neuron differentiation score” value in the experiment on ReNCell VM [2] (library: Phytochemical) was inactive: 0.
